Data as given in patent publication US7015190B1, “Method for enhancing long-term memory in a subject and uses thereof” (The Trustees of Columbia University in the City of New York, priority 1996, dated 2006).
No constants are given. Whether binding was seen depends on the method and setting. Some binding calls cover weakened binding; strength is not graded here. For some of these results: Where a sequence is shown, tags or fusion partners need not be part of it. Values belong to the binder of their own block, whether it stands above or below them.

Amino acid sequences for entries named in this document (tags omitted). A change or cut given only in a name is not applied to a line headed by its entry. Chains listed by the source or under a name are the forms on record and can include a tag or linker.
rat CREB-1 (P15337, form named): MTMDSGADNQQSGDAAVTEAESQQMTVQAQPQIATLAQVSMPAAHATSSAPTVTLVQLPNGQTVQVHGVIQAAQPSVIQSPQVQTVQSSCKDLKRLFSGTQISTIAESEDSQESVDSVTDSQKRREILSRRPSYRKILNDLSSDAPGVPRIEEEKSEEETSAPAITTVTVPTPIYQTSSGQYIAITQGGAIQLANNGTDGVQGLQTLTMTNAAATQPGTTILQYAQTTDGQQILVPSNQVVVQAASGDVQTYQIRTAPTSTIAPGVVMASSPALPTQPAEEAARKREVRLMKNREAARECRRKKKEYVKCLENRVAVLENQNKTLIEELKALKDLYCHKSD

Key:
rat CREB-1 (rat) [1] = target: rat CREB-1 (rat) (UniProt P15337); assay: yeast two-hybrid
rat CREB-1 (rat) [2] = target: rat CREB-1 (rat) (UniProt P15337); assay: in vitro heterodimer formation, method not detailed
rat CREB-1 (rat) [3] = target: rat CREB-1 (rat) (UniProt P15337); assay: in vitro heterodimer formation on a CRE

binding (rat CREB-1 (rat) [1]): binds
B1: ApCREB-2 C-terminal 118 amino acid peptide (amino acids 260-378, bZIP motif) as two-hybrid fusion (protein, not shown: large carriers)
chain: IDASKRFSPYSRSSKSKQSVKTSDAKAPRKTRTPAQPVPEHVIMEHLDKKDRKKLQNKNAAIRYRMKKKGEAQGIKGEEQELEELNTKLKTKVDDLQREIKYMKNLMEDVCKAKGIQLK

binding (rat CREB-1 (rat) [2]): binds | binding (rat CREB-1 (rat) [3]): binds
B2: ApCREB-2 (Aplysia californica bZIP transcription factor, full-length 378 amino acid protein) (protein)
chain: MELDLWSEDFQLAREWGLEMPVVQTDGQFGDLKSTSRHGGDESLSLQPQGATLKLEPFEEDVLGAEWMESSDLGSFLDALGDNHERLHPFESNLLEFTSLITPDDSTVSKDILSSTLQFPTQPVNIPLYASHGAEDFSAETEFENHLSPPDSPEQVAPVINLEPVELTASHMTVISPDGLLGGMELASESLTFTELDFVNFNDSAVGSIGGAEELLGSPLSVDDVESTISFSGPSSPETSQSSIIESSPELYKVISTSSIDASKRFSPYSRSSKSKQSVKTSDAKAPRKTRTPAQPVPEHVIMEHLDKKDRKKLQNKNAAIRYRMKKKGEAQGIKGEEQELEELNTKLKTKVDDLQREIKYMKNLMEDVCKAKGIQLKM

binding (rat CREB-1 (rat) [1]): binds
B3: full-length ApCREB-2 as two-hybrid fusion (pGAD10 clone; pAS1 / pACT2 subclones) (protein, not shown: large carriers)
chain: B2 chain
